PubChem BioAssay AID652243 | Drosophila RNAi Screening Center, 2013
The screen tested about 24,000 reagents; shown is an unselected part of those with a known target gene and a result. Of all reagents, 246 (1%) got an active call. 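Plates not normalised; calls are printed but the firefly/Renilla ratio behind them is not deposited; fold cut for lowering reported inconsistently.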 The raw values are shown without normalisation. Not stated in the record: the amount of reagent.

- Test: 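Fly genes required for human androgen receptor driven transcription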 (primary screen)
- Cells: Drosophila S2R+ cells
- Reagents: long dsRNA against Drosophila genes
- Duration: 72 h (48 h, then 24 h hormone)
- Treatment: synthetic androgen R1881 at 10 nM for 24 h
- Read-out: 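Firefly light from an androgen-responsive reporter and Renilla control light per well, raw and unnormalised, for each of two replicates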
- Direction: firefly reporter light: higher = more light from androgen-responsive reporter; Renilla control light: higher = more constitutive control signal (cell number, transfection)
- Rule for the call: 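Hit when the log firefly-to-Renilla ratio dropped or increased by a fixed fold versus the mean of GFP or LacZ controls across duplicate plates; lowering cut given as 1.5 and as 3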
- Meaning of the calls: active = hit: reporter lowered or raised; inactive = no hit

| gene | dsRNA | firefly reporter light, replicate 1 | firefly reporter light, replicate 2 | Renilla control light, replicate 1 | Renilla control light, replicate 2 | Outcome |
| --- | --- | --- | --- | --- | --- | --- |
| CG11550 | DRSC14326 | 2.00e5 | 1.60e5 | 2.13e6 | 2.19e6 | inactive |
| CG9451 | DRSC11074 | 2.36e5 | 1.32e5 | 2.03e6 | 1.64e6 | inactive |
| CG9451 | DRSC26098 | 2.29e5 | 2.93e5 | 7.24e5 | 5.63e5 | inactive |
| swi2 | DRSC06457 | 42121 | 66334 | 7.64e5 | 7.64e5 | inactive |
| btv | DRSC01615 | 1.36e5 | 1.59e5 | 4.14e5 | 3.80e5 | inactive |
| btv | DRSC02449 | 1.79e5 | 1.65e5 | 2.54e6 | 2.40e6 | inactive |
| Flad1 | DRSC19898 | 1.32e5 | 1.65e5 | 7.86e5 | 8.79e5 | inactive |
| Jhbp2 | DRSC12292 | 80326 | 72037 | 1.96e6 | 2.05e6 | inactive |
| Vha16-1 | DRSC05020 | 4.16e5 | 4.76e5 | 2.35e6 | 2.18e6 | inactive |
| CG10734 | DRSC05998 | 75309 | 58844 | 1.90e6 | 1.90e6 | inactive |
| HP1e | DRSC16379 | 86883 | 1.01e5 | 1.77e6 | 1.68e6 | inactive |
| Fum2 | DRSC18345 | 1.94e5 | 2.04e5 | 1.35e6 | 2.03e6 | inactive |
| Fum2 | DRSC25313 | 7.14e5 | 9.05e5 | 1.25e6 | 1.30e6 | inactive |

An excerpt from above, reduced to “firefly reporter light, replicate 2”:
Flad1 [DRSC19898] = 1.65e5
Jhbp2 [DRSC12292] = 72037

The results go on.
| gene | dsRNA | firefly reporter light, replicate 1 | firefly reporter light, replicate 2 | Renilla control light, replicate 1 | Renilla control light, replicate 2 | Outcome |
| --- | --- | --- | --- | --- | --- | --- |
| Grx1 | DRSC10727 | 3.60e5 | 2.83e5 | 2.28e6 | 2.48e6 | inactive |
| Ankrd49 | DRSC01894 | 1.74e5 | 1.24e5 | 1.63e6 | 1.38e6 | inactive |
| Ankrd49 | DRSC29117 | 4.03e5 | 3.48e5 | 1.39e6 | 1.19e6 | inactive |
| CG14721 | DRSC29246 | 1.17e6 | 1.08e6 | 1.53e6 | 1.42e6 | inactive |
| ERp44 | DRSC20215 | 98912 | 85681 | 6.70e5 | 6.43e5 | inactive |
| Eig71Ei | DRSC11156 | 3.20e5 | 1.97e5 | 2.92e6 | 2.55e6 | inactive |
| Eig71Ei | DRSC29123 | 1.02e6 | 1.09e6 | 1.82e6 | 1.36e6 | inactive |
| CG10904 | DRSC04084 | 2.40e5 | 2.69e5 | 1.81e6 | 2.01e6 | inactive |
| CG6707 | DRSC10697 | 2.20e5 | 3.98e5 | 3.49e6 | 2.91e6 | inactive |
| CG14671 | DRSC12257 | 60599 | 1.71e5 | 1.58e6 | 1.48e6 | inactive |
| CG5819 | DRSC04520 | 1.55e5 | 1.69e5 | 1.42e6 | 9.12e5 | inactive |
| CG5819 | DRSC28265 | 3.14e5 | 4.64e5 | 1.04e6 | 1.44e6 | inactive |
